This passage reports T/C and survivor count results from PubChem BioAssay AID256 (DTP/NCI, 2004).

The list does not hold the whole screen: it is rich in T/C values a quarter to a half above the control, in often repeated tests (any T/C) and in doses without a T/C. Other doses and runs of a compound stand elsewhere. T/C is the treated group as % of the vehicle group. Some entries give survivors of the animals treated and no T/C: the source holds a T/C of zero for them, seemingly a mark for toxic or unscored doses. Some doses without a T/C left all or most animals alive at the check, yet need not have been tolerated: the source hardly ever lists a survival T/C far under the control, and the zero likely stands for such cases as well. Counts of survivors are from the toxicity check (mostly the fifth day) where no day follows; animals may have died later. Schedule codes are those of the source, read here as Q, the interval in days (D) or hours (H), X, the number of doses. Some doses were run more than once; the values are given in rising order. Where survival is the endpoint, this PubChem deposit counts one and a half times the control or more as active, and values a quarter to a half above the control carry no call in these data; other NCI protocols may use other cut-offs. Some T/C values carry the count of animals alive at the toxicity check (mostly the fifth day); without a count, all were alive then.

The test system of this assay is CD2F1 mice, L1210 leukemia ip, survival T/C. Put plainly: NCI In Vivo Anticancer Drug Screen. Data for tumor model L1210 Leukemia (intraperitoneal) in CD2F1 (CDF1) mice. The following applies: higher T/C = longer survival. The method, then: The antitumor activity of compounds was measured in mice bearing transplantable tumors. Survival or tumor size were measured and the results are expressed as the measurement made in the treated group (T) divided by the measurement made in the vehicle treated control group (C). The tumor model used in this assay is L1210 Leukemia (intraperitoneal) in CD2F1 (CDF1) mice

The mark [1] stands for this setting: T/C endpoint: mean survival time, dose: 400.0 mg/kg/injection, schedule: Q04DX002 (ip), vehicle: saline with Tween-80.
Where [2] appears, read: T/C endpoint: mean survival time, dose: 200.0 mg/kg/injection, schedule: Q01DX009 (ip), vehicle: saline with Tween-80.
Setting [3] is: T/C endpoint: median survival time, dose: 16.0 mg/kg/injection, schedule: Q01DX009 (ip), vehicle: water.

Regarding `O=S1(=O)CS(=O)(=O)OCCO1`, the T/C runs as follows: (T/C endpoint: median survival time, dose: 6.25 mg/kg/injection, schedule: Q01DX009 (ip), vehicle: Klucel (hydroxypropylcellulose) (HPC)) 136, 137, 160, 178, 179 % of control; (T/C endpoint: median survival time, dose: 12.5 mg/kg/injection, schedule: Q01DX009 (ip), vehicle: Klucel (hydroxypropylcellulose) (HPC)) 145, 182, 194, 208, 238 % of control; (T/C endpoint: median survival time, dose: 12.5 mg/kg/injection, schedule: Q01DX009 (oral), vehicle: Klucel (hydroxypropylcellulose) (HPC)) 128 % of control; (T/C endpoint: median survival time, dose: 22.0 mg/kg/injection, schedule: Q01DX005 (oral), vehicle: Klucel (hydroxypropylcellulose) (HPC)) 138 % of control; (T/C endpoint: median survival time, dose: 25.0 mg/kg/injection, schedule: Q01DX009 (ip), vehicle: Klucel (hydroxypropylcellulose) (HPC)) 202, 213, 283, 337, 361 % of control; (T/C endpoint: median survival time, dose: 25.0 mg/kg/injection, schedule: Q01DX009 (oral), vehicle: Klucel (hydroxypropylcellulose) (HPC)) 144 % of control. Further, the T/C is, setting by setting: (T/C endpoint: median survival time, dose: 49.5 mg/kg/injection, schedule: Q01DX005 (oral), vehicle: Klucel (hydroxypropylcellulose) (HPC)) 137 % of control [7 of 10 alive]; (T/C endpoint: median survival time, dose: 49.5 mg/kg/injection, schedule: Q06HX002 (oral), vehicle: Klucel (hydroxypropylcellulose) (HPC)) 130 % of control; (T/C endpoint: median survival time, dose: 50.0 mg/kg/injection, schedule: Q01DX009 (ip), vehicle: Klucel (hydroxypropylcellulose) (HPC)) 127, 190, 259, 337, 361 % of control; (T/C endpoint: median survival time, dose: 74.2 mg/kg/injection, schedule: Q01DX001 (oral), vehicle: Klucel (hydroxypropylcellulose) (HPC)) 126 % of control; (T/C endpoint: median survival time, dose: 74.2 mg/kg/injection, schedule: Q06HX002 (oral), vehicle: Klucel (hydroxypropylcellulose) (HPC)) 137 % of control; (T/C endpoint: median survival time, dose: 111.2 mg/kg/injection, schedule: Q01DX001 (oral), vehicle: Klucel (hydroxypropylcellulose) (HPC)) 138 % of control. The T/C is 147 % of control (T/C endpoint: median survival time, dose: 111.2 mg/kg/injection, schedule: Q06HX002 (oral), vehicle: Klucel (hydroxypropylcellulose) (HPC)) and 146 % of control (T/C endpoint: median survival time, dose: 166.8 mg/kg/injection, schedule: Q06HX002 (oral), vehicle: Klucel (hydroxypropylcellulose) (HPC)). The survivor count runs as follows: (T/C endpoint: median survival time, dose: 100.0 mg/kg/injection, schedule: Q01DX009 (ip), vehicle: Klucel (hydroxypropylcellulose) (HPC)) 0 of 6, 3 of 6, 5 of 6; (T/C endpoint: median survival time, dose: 100.0 mg/kg/injection, schedule: Q01DX009 (oral), vehicle: Klucel (hydroxypropylcellulose) (HPC)) 3 of 10; (T/C endpoint: median survival time, dose: 200.0 mg/kg/injection, schedule: Q01DX009 (oral), vehicle: Klucel (hydroxypropylcellulose) (HPC)) 0 of 10; (T/C endpoint: median survival time, dose: 225.0 mg/kg/injection, schedule: Q01DX001 (oral), vehicle: Klucel (hydroxypropylcellulose) (HPC)) 3 of 10; (T/C endpoint: median survival time, dose: 400.0 mg/kg/injection, schedule: Q01DX009 (oral), vehicle: Klucel (hydroxypropylcellulose) (HPC)) 0 of 10; (T/C endpoint: median survival time, dose: 450.0 mg/kg/injection, schedule: Q01DX001 (oral), vehicle: Klucel (hydroxypropylcellulose) (HPC)) 0 of 10. In addition, the survivor count is, setting by setting: (T/C endpoint: median survival time, dose: 900.0 mg/kg/injection, schedule: Q01DX001 (oral), vehicle: Klucel (hydroxypropylcellulose) (HPC)) 0 of 10; (T/C endpoint: median survival time, dose: 1800.0 mg/kg/injection, schedule: Q01DX001 (oral), vehicle: Klucel (hydroxypropylcellulose) (HPC)) 0 of 10.
For the compound `O=C(O)CSc1ccccc1`, the survivor count (T/C endpoint: mean survival time, dose: 100.0 mg/kg/injection, schedule: Q04DX003 (ip), vehicle: other) is listed as 1 of 6 and the survivor count (T/C endpoint: mean survival time, dose: 400.0 mg/kg/injection, schedule: Q04DX003 (ip), vehicle: saline) is reported as 3 of 6.
As to `NC(=O)CNC1=C(N2CC2)C(=O)C(NCC(N)=O)=C(N2CC2)C1=O`, the T/C (T/C endpoint: mean survival time, dose: 5.0 mg/kg/injection, schedule: Q01DX009 (ip), vehicle: saline) was 140 % of control. For the setting “T/C endpoint: mean survival time, dose: 15.0 mg/kg/injection, schedule: Q01DX009 (ip), vehicle: saline”, the survivor count was 6 of 6.
For `C=C(C)C1(Cc2ccccc2)C(=O)NC(=O)NC1=O`, where the note is “T/C endpoint: mean survival time, dose: 80.0 mg/kg/injection, schedule: Q01DX001 (ip), vehicle: saline”, the survivor count is recorded as 3 of 6.
For the compound `N#CCc1[nH]nc2ncnc(N)c12`, for the setting “T/C endpoint: mean survival time, dose: 200.0 mg/kg/injection, schedule: Q01DX005 (ip), vehicle: water”, the survivor count is on record as 2 of 6.
As to `Nc1nc2c(ncn2-c2ccc(OCCNC(=O)Nc3cc(S(=O)(=O)F)ccc3Cl)cc2)c(=O)[nH]1` (tested in a mixture with another compound), the survivor count (T/C endpoint: mean survival time, dose: 300.0 mg/kg/injection, schedule: Q01DX001 (ip), vehicle: saline with Tween-80) is reported as 6 of 6.
Turning to `COc1ccc(C=C2C(=O)C=CC2=O)cc1OC`, the survivor count is, setting by setting: (T/C endpoint: mean survival time, dose: 20.0 mg/kg/injection, schedule: Q04DX002 (ip), vehicle: saline with Tween-80) 0 of 3; (T/C endpoint: mean survival time, dose: 100.0 mg/kg/injection, schedule: Q04DX002 (ip), vehicle: saline with Tween-80) 0 of 3; (T/C endpoint: mean survival time, dose: 200.0 mg/kg/injection, schedule: Q04DX002 (ip), vehicle: saline with Tween-80) 0 of 3; under setting [1], 0 of 3.
Consider `O=C(CCCl)Oc1c(Cl)c(Cl)c(Cl)c(Cl)c1Cl`, for which the survivor count reads like this: under setting [2], 5 of 6; (T/C endpoint: mean survival time, dose: 400.0 mg/kg/injection, schedule: Q01DX009 (ip), vehicle: saline with Tween-80) 3 of 6.
As to `Cc1cc(O)c(N=Nc2ccc(C(=O)O)cc2)cc1C`, the survivor count (T/C endpoint: mean survival time, dose: 200.0 mg/kg/injection, schedule: Q01DX009 (ip), vehicle: saline) is on record as 6 of 6.
In the case of `O=C(O)CCCCCCCC(=O)O`, the survivor count (T/C endpoint: median survival time, dose: 200.0 mg/kg/injection, schedule: Q01DX009 (ip), vehicle: distilled water + Tween-80) is listed as 2 of 6.
As for `C[n+]1c(-c2cccc(OCCOCCOc3cccc(-c4c5cc(N)ccc5c5ccc(N)cc5[n+]4C)c3)c2)c2cc(N)ccc2c2ccc(N)cc21`, the T/C reads like this: (T/C endpoint: median survival time, dose: 4.0 mg/kg/injection, schedule: Q01DX009 (ip), vehicle: water) 132 % of control; (T/C endpoint: median survival time, dose: 8.0 mg/kg/injection, schedule: Q01DX009 (ip), vehicle: water) 129 % of control; under setting [3], 132 % of control. Also, the survivor count runs as follows: under setting [3], 6 of 6; (T/C endpoint: median survival time, dose: 32.0 mg/kg/injection, schedule: Q01DX009 (ip), vehicle: water) 6 of 6.
Consider `COC1CCC(/C=C(\C#N)C2CCC(C)CC2)CC1` (stereo unspecified), for which the survivor count under setting [2] is recorded as 3 of 3.
Regarding `Cc1cccc(C(=O)OCCBr)c1`, the survivor count runs as follows: (T/C endpoint: mean survival time, dose: 150.0 mg/kg/injection, schedule: Q01DX009 (ip), vehicle: saline with Tween-80) 3 of 6; (T/C endpoint: mean survival time, dose: 300.0 mg/kg/injection, schedule: Q01DX009 (ip), vehicle: saline with Tween-80) 0 of 6.
As for `CC1=C(CCC#N)C(=O)C(CCC#N)C(C)(C)C1` (stereo unspecified), the survivor count under setting [1] was 0 of 3.
As for `CCOC(=O)CC1=Nc2c(Cl)ncnc2NN1`, under “T/C endpoint: mean survival time, dose: 400.0 mg/kg/injection, schedule: Q01DX001 (ip), vehicle: carboxymethylcellulose (CMC)”, the survivor count is given as 2 of 6.
Consider `CSc1nnc([N+](=O)[O-])s1`, for which the survivor count reads like this: (T/C endpoint: mean survival time, dose: 100.0 mg/kg/injection, schedule: Q04DX003 (ip), vehicle: Klucel (hydroxypropylcellulose) (HPC)) 0 of 6; (T/C endpoint: mean survival time, dose: 200.0 mg/kg/injection, schedule: Q04DX003 (ip), vehicle: Klucel (hydroxypropylcellulose) (HPC)) 1 of 6; (T/C endpoint: mean survival time, dose: 400.0 mg/kg/injection, schedule: Q04DX003 (ip), vehicle: Klucel (hydroxypropylcellulose) (HPC)) 4 of 6.
For `COC(CNC1=C(C)C(=O)C2=C(C1=O)[C@H](COC(N)=O)[C@]1(OC)[C@@H]3N[C@@H]3CN21)OC`, the T/C (T/C endpoint: mean survival time, dose: 6.0 mg/kg/injection, schedule: Q01DX001 (ip), vehicle: water) is 125 % of control; the T/C (T/C endpoint: mean survival time, dose: 12.0 mg/kg/injection, schedule: Q01DX001 (ip), vehicle: water, evaluated on day 30) is 142 % of control; the T/C (T/C endpoint: mean survival time, dose: 12.0 mg/kg/injection, schedule: Q01DX001 (ip), vehicle: water, evaluated on day 35) was 128 % of control.
Consider `CCCCCCCCCN=C(N)CSSCC(N)=NCCCCCCCCC`, for which the survivor count (T/C endpoint: mean survival time, dose: 50.0 mg/kg/injection, schedule: Q01DX001 (ip), vehicle: Klucel (hydroxypropylcellulose) (HPC)) is 0 of 3.
Regarding `CCOc1ccc([NH-])c([NH-])c1.[Cl][Pt+2][Cl]`, the survivor count by setting is: (T/C endpoint: mean survival time, dose: 20.0 mg/kg/injection, schedule: Q01DX009 (ip), vehicle: distilled water + Tween-80) 5 of 6; (T/C endpoint: mean survival time, dose: 40.0 mg/kg/injection, schedule: Q01DX009 (ip), vehicle: distilled water + Tween-80) 1 of 6.
